Data taken from PubChem BioAssay AID1159506, deposited by NCATS (2015).

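Genome-wide siRNA knockdown in TC32 Ewing sarcoma cells, comparing luciferase light from an NR0B1-promoter reporter with a CMV-promoter reporter 48 hours after transfection.
Each siRNA was applied at 20 nM.
A z-score of the log NR0B1-over-CMV signal, less the median of siRNAs with the same seed; more negative means a stronger specific loss of the NR0B1 reporter.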

This is part of the screen; most of the strongest results are not listed here.
Sequences are the guide (antisense) strand, without overhang.

siRNA,target gene,seed-corrected z-score
UCGCGGACGACAAUGUUGG,CLDN5,0.5546
UCUUCGAUAGACACCACUG,ENO1,0.936
UCACCUUUCACGCCUAUGU,COL11A2,0.5195
UCCUUUAGUGCAAAUAUGG,CDK16,-0.5288
UUCCUGGAAAUUGCCUACC,TMEM150B,-0.4482
UUUCCUCUGCGAAAUAUCC,ZNF763,-0.2526
UGUAAUAAAACCUUUACUC,SLC25A16,0.931
UUCGUGAUCUGAUCACACC,FBXL2,0.9388
UUAUGGAUCAUGCGGAUGU,WDTC1,0.2729
ACAAGUAAAAGCUGAUUGG,ENGASE,-0.005525
UUAGUCGGAGGCUUCAUCC,MERTK,-0.4448
UUGGGAGUGAAGGCGAUGG,CECR6,0.2248
UUCGUGUGAAUGUCUGGUC,ZNF483,0.2247
UCCGGUUUUAUGGAUGAGA,TAF12,0.9286
UCUCCAGUAAGGUCCAUGG,ARHGDIB,0.2193
AUCUCUUCCAAGUCUAGGG,MROH3P,-1.09
AAUGGACAAAACAAUAUUG,OR8J3,0.4382
UGUGAUGAAAUGAGCGUGU,GATB,0.1356
UCUGAGUAAAUCUCGCACC,ALAS2,-0.4971
UUCCUGUCCAUCGACAUUG,ZNF446,0.4704
ACAGAUUUCAGUAAGAAUG,SMIM12,0.8677
UCCACUUGUACAUUAUCUG,KIAA1324L,-0.6463
UCCUUGUCCGAGUACUUCU,BAIAP2,-0.752
AAGAUGACGAACUUGUCCC,CRYAA,1.013
UUCUAUAGAGAGCAAAUCC,RHBDL2,0.1592
UUGCUGAAUACCGCUAACU,VGLL3,0.07782
UCUGAUUGAAGAGAGCUGC,CRYGN,0.6678
UGAUCUAACAAAAAGGUUC,LINC01501,-1.243
AUUCCUAGCACCAUCUUUC,CRIPT,0.2024
UUCUGUGAUAGCUCGUUCG,TFB1M,0.1484
ACCUCUCUCACAGUGCUGC,SMIM10L2A,0.03765
UUUACAGAAGAUUAGAUGC,OR7D2,-0.3897
AAAGCUUAAGAGUAGUUCG,TRPC4,0.2049
UGCGAUCUCCUUCACAUGC,NAIF1,0.3862
UGUCUUGAACGGAAUAUCC,C2orf71,-1.208
UCACUGUCUCUGGUUGAUC,FAM177A1,-1.558
UACGUCUAUAUUGUCCACG,AMDHD1,0.2185
AUAUAUGUAGUCGAGAUCC,SLC5A12,0.6028
UUUGUGGUCCUUGUCACGC,MMAA,0.1879
UUUGAUAUAGACUUCAUCU,C1QL3,0.1557
UACAUGAGAUCCAUGAGCG,OR2T34,-1.566
UAUAGGCAUACUGCUGCUG,OVOL2,-1.255
UUCACCAUCACACUCAUCC,ATXN7,-0.1007
UAAACGGCAAUCUUCGGUC,ZBTB21,0.3276
UAGGAGUCAGUCUGUAUGC,EIF3H,-0.8719
UGAACCAAAUCAAUUAUCU,MAGEA11,0.3614
UAAUCCAUACUCGUUCUUC,CNOT2,1.152
UACAAGGCUACCACAAUGU,LYN,0.3072
UCUCGGAUGACGAUCUCCC,PHKG1,-1.005
UUAUAAAAUACCUCGAACC,DENND1A,-1.394
UGUAUAAACAAAGUGCCUG,SERPINB8,-0.5261
UAAGCAGCUGUCUGAAGCC,NODAL,0.3209
AUAGAACUUGAAUAAGUCC,PRPF40B,0.5898
AAACUGACCACGGUCAUAG,TNFAIP8,-0.01972
AACUUGUCCAUCAAAAUUC,RAG2,-0.5241
AAGUCGGUCAGUUCCUUCC,FOSL1,-0.9957
UUCCAGCUUAUAUCAUUCC,SIGLEC7,-0.6082
AAUGGAACAGAUGCGCAGC,LAS1L,0.3919
UGUACUCCAACCUUCACUG,METTL10,1.21
UUACAGGCCACUGUGAGAG,S100A1,-0.1434
UGAGGUCUUCGUUCUGCUG,MTUS2,-1.848
UUUACGUAUACUUCAGUAG,CD47,-0.5176
UCCGUCUAGGCCUUUUUCC,DCD,-0.213
UGAUUAUAUAGCGUGAACC,CNTN1,0.474
AUCGGUACAAAUAGCCUGG,CCR6,0.03345
UUCUUGGACCACACUGACU,MEGF11,0.08326
UUACUUUGGAGUCUCUGCC,SNX10,-1.452
CAACUUUUAAAUCUGAUGC,SPAG11B,1.3
AAUGAUAAGGUCAAUAUCG,TOE1,0.1506
AAUAGUCAUAUAAGGAGCC,ACVR1C,1.656
UACCGUCUGAGCAUAAAGC,SNX17,0.005872
AAACUGCUCAAAAUAUUGC,MSI1,-0.9564
UGUCUAUAAAGGUCUGAAC,ZNF449,-0.1609
AUUCUGAUCACGGAAAUCC,C3orf52,0.2589
UUCGCUUUCUGGUUAUGGG,C1orf226,0.01089
UCAGGAAGGUAGUUGAGGC,CCL23,0.5609
UUUCAUAUAGAGAUCGAGG,FAM192A,0.9022
AAUGUUCCAGUCGAAUUCC,NUF2,-0.8857
UCACCAGCUAGUCCCAAGG,TMEM109,-0.2112
AAACUGAUCAGUGCAUGCU,ACSL6,-0.3352
UAUUUCGCAAGAGACUCGG,FETUB,-0.1716
UUCGGUCAUAGAGGUAAAC,SEC23IP,-0.7616
UUCUCCAUAAGGGUUGCUC,LCE2A,0.6577
AUAGGUAAUGUUAAGUCGG,UFD1L,0.5554

Once more, the final 9:

| siRNA | target gene | seed-corrected z-score |
|---|---|---|
| `UCAGGAAGGUAGUUGAGGC` | CCL23 | 0.5609 |
| `UUUCAUAUAGAGAUCGAGG` | FAM192A | 0.9022 |
| `AAUGUUCCAGUCGAAUUCC` | NUF2 | -0.8857 |
| `UCACCAGCUAGUCCCAAGG` | TMEM109 | -0.2112 |
| `AAACUGAUCAGUGCAUGCU` | ACSL6 | -0.3352 |
| `UAUUUCGCAAGAGACUCGG` | FETUB | -0.1716 |
| `UUCGGUCAUAGAGGUAAAC` | SEC23IP | -0.7616 |
| `UUCUCCAUAAGGGUUGCUC` | LCE2A | 0.6577 |
| `AUAGGUAAUGUUAAGUCGG` | UFD1L | 0.5554 |